# These are yes or no findings as the source states them, for the method shown. In cells and extracts the contact can be indirect. Some entries that bind do so weakly or less than the wild type.
# Chains of the proteins cited; added tags and fusions are not shown.
# UniProt P49454: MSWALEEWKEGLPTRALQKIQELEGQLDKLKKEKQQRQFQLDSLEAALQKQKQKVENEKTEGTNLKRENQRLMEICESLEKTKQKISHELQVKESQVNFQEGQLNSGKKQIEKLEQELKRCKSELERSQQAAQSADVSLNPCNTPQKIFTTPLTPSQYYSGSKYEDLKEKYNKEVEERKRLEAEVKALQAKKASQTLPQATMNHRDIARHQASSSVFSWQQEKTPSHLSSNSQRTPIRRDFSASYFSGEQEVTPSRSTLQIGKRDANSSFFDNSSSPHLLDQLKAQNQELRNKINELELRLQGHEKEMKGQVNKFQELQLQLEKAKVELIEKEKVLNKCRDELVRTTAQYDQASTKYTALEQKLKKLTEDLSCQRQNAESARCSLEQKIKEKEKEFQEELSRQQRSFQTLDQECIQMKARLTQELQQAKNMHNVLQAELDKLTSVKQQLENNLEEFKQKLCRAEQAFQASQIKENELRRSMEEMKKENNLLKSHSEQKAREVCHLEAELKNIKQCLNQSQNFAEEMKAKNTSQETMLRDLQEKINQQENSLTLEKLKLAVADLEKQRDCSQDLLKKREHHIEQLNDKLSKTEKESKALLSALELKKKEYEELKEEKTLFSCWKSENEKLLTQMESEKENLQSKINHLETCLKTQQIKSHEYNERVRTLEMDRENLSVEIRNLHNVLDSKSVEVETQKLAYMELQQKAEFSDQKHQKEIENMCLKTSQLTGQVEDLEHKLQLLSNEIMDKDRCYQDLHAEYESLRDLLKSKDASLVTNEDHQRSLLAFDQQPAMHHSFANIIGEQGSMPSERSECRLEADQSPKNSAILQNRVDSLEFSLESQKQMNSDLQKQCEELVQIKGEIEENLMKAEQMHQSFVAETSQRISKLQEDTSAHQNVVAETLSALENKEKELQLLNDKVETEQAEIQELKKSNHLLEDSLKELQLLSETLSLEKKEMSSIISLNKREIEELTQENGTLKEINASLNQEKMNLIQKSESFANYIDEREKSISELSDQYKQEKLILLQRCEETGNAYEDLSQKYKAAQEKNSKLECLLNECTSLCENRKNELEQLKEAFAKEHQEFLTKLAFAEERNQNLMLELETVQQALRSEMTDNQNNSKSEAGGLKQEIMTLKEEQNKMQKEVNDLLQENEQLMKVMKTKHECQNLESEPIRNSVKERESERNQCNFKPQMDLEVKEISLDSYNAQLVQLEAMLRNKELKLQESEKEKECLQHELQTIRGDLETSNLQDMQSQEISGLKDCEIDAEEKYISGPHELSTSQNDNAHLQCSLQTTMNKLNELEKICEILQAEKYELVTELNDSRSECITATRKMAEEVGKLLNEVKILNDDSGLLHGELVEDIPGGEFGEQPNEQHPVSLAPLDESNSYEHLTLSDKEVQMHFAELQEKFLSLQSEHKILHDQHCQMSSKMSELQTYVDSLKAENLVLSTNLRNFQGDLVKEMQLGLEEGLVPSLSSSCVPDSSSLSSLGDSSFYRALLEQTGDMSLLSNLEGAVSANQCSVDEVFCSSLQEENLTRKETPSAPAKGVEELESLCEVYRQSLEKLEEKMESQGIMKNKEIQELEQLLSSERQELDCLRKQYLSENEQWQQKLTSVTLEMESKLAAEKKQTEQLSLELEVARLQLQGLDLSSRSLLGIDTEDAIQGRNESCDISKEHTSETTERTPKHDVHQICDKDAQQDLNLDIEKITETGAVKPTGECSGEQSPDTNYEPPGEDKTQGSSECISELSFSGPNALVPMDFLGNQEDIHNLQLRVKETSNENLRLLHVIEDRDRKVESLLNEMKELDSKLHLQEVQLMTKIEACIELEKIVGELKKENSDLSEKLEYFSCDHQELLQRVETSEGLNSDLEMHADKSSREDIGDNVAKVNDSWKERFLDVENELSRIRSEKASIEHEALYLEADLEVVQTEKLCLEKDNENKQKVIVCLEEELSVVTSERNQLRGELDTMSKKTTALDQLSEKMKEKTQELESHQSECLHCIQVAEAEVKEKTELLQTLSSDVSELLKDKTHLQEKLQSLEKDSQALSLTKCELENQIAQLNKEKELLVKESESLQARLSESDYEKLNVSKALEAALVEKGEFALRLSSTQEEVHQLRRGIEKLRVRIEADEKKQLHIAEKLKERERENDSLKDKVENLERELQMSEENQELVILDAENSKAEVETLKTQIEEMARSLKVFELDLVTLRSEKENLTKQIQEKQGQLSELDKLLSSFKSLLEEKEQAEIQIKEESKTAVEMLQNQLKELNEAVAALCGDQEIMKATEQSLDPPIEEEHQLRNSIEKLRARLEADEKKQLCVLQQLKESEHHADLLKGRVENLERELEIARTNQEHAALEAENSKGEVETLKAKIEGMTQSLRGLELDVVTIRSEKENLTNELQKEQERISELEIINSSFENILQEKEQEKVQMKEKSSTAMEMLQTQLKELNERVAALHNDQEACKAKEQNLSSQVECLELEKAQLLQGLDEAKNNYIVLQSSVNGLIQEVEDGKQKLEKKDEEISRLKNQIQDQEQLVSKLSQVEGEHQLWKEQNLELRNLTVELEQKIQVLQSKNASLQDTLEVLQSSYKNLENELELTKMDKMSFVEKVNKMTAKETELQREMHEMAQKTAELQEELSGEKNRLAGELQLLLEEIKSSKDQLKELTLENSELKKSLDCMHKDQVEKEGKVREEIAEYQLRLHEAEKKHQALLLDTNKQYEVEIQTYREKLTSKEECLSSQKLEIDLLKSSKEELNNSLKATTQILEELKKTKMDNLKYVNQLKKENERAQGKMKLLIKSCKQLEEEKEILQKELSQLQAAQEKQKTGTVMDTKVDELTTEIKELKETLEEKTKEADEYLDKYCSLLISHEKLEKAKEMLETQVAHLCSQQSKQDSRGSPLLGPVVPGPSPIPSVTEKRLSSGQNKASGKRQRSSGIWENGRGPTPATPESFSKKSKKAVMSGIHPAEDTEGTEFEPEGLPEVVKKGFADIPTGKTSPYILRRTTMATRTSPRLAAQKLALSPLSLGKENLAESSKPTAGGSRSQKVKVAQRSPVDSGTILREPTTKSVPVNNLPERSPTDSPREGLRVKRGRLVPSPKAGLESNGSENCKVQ
# UniProt Q8TEW0: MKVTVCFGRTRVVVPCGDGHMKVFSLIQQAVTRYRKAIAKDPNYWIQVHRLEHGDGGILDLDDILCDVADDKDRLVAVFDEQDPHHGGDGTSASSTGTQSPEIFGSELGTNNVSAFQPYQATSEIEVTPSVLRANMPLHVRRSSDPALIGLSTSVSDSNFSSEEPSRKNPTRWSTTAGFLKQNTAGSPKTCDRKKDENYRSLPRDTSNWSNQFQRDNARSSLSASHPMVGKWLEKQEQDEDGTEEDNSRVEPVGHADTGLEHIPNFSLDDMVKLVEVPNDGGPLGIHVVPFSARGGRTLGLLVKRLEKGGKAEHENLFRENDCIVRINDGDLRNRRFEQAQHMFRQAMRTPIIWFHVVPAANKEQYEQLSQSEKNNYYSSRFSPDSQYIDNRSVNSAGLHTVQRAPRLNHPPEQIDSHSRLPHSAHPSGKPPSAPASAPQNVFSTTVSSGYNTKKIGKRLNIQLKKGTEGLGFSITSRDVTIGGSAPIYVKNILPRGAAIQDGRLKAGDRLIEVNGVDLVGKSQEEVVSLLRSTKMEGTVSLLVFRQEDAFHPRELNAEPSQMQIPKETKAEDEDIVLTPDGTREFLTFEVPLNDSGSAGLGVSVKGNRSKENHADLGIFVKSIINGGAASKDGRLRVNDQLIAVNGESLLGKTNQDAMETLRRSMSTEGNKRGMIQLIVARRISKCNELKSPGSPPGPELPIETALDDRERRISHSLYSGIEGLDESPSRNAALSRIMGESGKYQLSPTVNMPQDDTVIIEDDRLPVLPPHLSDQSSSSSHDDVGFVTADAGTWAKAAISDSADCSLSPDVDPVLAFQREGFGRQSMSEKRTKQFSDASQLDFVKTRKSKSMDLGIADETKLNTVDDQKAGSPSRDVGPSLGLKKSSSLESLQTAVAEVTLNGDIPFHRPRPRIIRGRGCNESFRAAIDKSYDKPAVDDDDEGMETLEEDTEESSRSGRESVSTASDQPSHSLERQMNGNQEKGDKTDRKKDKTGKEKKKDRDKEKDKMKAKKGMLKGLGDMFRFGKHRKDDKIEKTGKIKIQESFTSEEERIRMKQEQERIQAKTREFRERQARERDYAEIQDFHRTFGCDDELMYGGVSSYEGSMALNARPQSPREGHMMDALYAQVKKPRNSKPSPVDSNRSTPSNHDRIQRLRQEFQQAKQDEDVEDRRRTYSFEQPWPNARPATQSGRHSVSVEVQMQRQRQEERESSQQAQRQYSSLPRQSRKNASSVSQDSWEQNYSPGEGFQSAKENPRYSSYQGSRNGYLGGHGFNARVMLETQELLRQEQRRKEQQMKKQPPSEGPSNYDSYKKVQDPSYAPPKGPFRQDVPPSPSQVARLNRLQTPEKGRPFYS
# UniProt Q14980: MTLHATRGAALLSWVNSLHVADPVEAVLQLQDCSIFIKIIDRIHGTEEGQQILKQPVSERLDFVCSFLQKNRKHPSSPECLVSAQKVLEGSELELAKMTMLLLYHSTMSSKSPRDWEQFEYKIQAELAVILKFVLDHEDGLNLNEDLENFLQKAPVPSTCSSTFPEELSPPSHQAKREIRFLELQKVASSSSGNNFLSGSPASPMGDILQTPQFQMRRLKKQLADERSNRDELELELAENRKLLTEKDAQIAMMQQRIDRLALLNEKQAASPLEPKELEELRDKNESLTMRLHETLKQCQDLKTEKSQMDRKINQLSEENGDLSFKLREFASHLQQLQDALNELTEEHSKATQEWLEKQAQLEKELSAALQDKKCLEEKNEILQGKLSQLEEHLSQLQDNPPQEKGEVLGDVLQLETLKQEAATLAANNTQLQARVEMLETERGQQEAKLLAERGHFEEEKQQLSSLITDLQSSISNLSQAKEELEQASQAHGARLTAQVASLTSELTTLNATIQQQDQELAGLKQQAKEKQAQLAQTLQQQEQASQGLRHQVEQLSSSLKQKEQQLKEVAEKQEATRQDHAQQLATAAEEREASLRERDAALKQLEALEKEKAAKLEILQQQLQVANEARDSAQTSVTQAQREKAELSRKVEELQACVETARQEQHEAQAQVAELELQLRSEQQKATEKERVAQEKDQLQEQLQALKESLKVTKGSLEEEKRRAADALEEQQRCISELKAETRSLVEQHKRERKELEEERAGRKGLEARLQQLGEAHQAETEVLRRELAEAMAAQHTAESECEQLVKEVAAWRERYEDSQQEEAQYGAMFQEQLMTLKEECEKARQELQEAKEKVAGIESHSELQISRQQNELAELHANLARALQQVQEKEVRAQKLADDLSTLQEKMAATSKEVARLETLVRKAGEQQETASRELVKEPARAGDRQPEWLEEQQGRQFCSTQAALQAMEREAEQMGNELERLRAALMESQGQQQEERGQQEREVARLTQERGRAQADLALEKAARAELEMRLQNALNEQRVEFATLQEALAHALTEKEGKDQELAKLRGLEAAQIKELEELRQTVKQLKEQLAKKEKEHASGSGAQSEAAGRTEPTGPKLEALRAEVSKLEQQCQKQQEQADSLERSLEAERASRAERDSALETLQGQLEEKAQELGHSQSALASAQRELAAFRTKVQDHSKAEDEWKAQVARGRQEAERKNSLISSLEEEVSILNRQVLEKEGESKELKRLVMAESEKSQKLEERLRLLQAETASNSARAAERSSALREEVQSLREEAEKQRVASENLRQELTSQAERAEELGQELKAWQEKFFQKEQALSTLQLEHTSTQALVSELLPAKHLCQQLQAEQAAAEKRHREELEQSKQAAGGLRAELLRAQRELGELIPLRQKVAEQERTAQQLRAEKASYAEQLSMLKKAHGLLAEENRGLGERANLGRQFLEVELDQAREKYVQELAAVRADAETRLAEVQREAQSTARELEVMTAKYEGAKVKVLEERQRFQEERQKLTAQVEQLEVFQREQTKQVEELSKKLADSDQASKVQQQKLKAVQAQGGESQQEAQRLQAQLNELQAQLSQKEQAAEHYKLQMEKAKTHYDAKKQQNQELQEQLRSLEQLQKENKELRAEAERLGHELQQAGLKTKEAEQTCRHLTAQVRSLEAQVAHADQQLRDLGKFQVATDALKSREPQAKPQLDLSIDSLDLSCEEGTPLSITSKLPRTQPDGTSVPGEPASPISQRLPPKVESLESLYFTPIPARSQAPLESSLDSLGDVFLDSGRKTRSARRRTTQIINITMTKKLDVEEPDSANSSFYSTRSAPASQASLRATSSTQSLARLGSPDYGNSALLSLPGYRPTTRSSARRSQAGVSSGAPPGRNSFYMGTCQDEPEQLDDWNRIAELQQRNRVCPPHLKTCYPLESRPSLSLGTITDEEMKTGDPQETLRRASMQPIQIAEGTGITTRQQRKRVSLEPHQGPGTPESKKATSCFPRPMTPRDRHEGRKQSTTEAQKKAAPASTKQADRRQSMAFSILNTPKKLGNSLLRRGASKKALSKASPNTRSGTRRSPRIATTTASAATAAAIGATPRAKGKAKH
# Biological target: CENP-F (co-immunoprecipitation of supplementary figure S8) (UniProt P49454)
# Assay: co-IP; co-immunoprecipitation shown in online supplementary figure S8; cells and antibody not given
row,Substance,binding
1,p150 Glued dynactin (from UniProt Q14203-1 1-1278),binds
2,Par 3 (from UniProt Q8TEW0 1-1356),binds
3,NuMA (from UniProt Q14980 1-2115),binds

# Reference: paper PMC4345935
